Experimental data taken from patent US20130034493A1.

Assays:
[1] = target: T1, recombinant BMP4 (rBMP4) (mouse) (UniProt P21275); assay: ELISA; co-immunoprecipitation; mass spectrometry
T1 sequence (looked up): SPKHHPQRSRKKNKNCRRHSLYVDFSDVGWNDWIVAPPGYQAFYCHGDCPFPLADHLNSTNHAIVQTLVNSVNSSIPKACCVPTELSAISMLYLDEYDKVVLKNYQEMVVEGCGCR

[2] = target: T1, recombinant BMP4 (rBMP4) (mouse); assay: pull-down, tandem mass spectrometry of the gel slice (FIG. 14)

- binding [1]: binds
- binding [2]: binds
B1: mouse recombinant Olfml3-FLAG tagged protein (rOlfml3-FLAG) (protein, not shown: small tags and cut ends)
chain: QQHHLVEYMERRLAALEERLAQCQDQSSRHAAELRDFKNKMLPLLEVAEKERETLRTEADSISGRVDRLEREVDYLETQNPALPCVELDEKVTGGPGAKGKGRRNEKYDMVTDCSYTVAQVRSMKILKRFGGSVGLWTKDPLGPAEKIYVLDGTQNDTAFVFPRLRDFTLAMAARKASRIRVPFPWVGTGQLVYGGFLYYARRPPGGPGGGGELENTLQLIKFHLANRTVVDSSVFPAESLIPPYGLTADTYIDLAADEEGLWAVYATRDDDRHLCLAKLDPQTLDTEQQWDTPCPRENAEAAFVICGTLYVVYNTRPASRARIQCSFDASGTLAPERAALSYFPRRYGAHASLRYNPRERQLYAWDDGYQIVYKLEMKKKEEEV

Results are given in words; binding and its absence hold for the method and conditions named. Binding seen in cells or lysates may run through a third protein. A yes stands for co-enrichment or nearness to the bait. Other partners may have been found. Tags and fused reporters may be left off the sequences shown.
